This assay concerns the target butyrylcholinesterase (human (endogenous in serum)) (UniProt P06276). The assay can be described thus: affinity purification with mass spectrometry; SEC fractions 6, 8 and 10 of human serum loaded on 50 µL Hupresin AC Sepharose (binds BChE); washed only 2 times with 200 µL 100 mM NaCl, 20 mM Tris-HCl pH 7.4; eluted with 0.5 M trimethylammonium chloride; eluate identified by LC-MS/MS (Mascot).

By UniProt entry, the sequences of proteins in these tests, tags left out. Where a name states a change or a piece, a line headed by the entry shows the natural chain unless it says otherwise. Residues count along the entry.
UniProt P06276, residues 29-602: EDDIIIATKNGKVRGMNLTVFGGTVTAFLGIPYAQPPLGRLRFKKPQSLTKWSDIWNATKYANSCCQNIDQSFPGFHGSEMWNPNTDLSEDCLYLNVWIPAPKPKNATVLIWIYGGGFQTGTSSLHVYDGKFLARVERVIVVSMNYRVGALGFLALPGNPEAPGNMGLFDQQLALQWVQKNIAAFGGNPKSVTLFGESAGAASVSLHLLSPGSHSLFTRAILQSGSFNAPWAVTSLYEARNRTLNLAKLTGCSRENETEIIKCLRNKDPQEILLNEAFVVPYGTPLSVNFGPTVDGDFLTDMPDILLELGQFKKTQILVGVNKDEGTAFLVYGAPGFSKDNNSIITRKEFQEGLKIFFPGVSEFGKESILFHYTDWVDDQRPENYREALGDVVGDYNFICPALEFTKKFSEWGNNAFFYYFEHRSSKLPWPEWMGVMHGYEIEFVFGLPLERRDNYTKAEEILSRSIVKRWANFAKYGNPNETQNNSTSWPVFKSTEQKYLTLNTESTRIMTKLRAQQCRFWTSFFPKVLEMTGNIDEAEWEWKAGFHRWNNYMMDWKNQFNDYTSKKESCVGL
UniProt P02647: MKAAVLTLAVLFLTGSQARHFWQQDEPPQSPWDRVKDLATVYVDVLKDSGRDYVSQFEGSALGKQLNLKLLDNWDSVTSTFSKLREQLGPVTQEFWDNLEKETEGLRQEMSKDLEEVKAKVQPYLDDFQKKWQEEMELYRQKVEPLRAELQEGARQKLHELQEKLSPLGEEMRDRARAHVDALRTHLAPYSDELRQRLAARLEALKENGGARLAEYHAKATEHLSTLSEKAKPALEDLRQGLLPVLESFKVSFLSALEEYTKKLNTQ

No constants are given. Whether binding was seen depends on the method and setting. In cells and extracts the contact can be indirect. A yes stands for co-enrichment or nearness to the bait. Other partners may have been found.

For ApoA-I (from UniProt P02647), the binding result is reported as “binds”.

The values above are taken from paper PMC8508650.
